PubChem BioAssay AID1224826, NIAID, 2016
Here is a random part of about 17,000 reagents. In the full data, about 1,110 (6.6%) are marked active. 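Active means lowered or raised reporter signal; replicate intensities are raw and not normalised per plate.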 Reagent sequences are not shown.

Purpose: 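Regulators of Tlr4 signalling leading to Tnf-alpha expression in macrophages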 (primary screen)
System: RAW264.7 G9 macrophages from mouse bearing reporters for p65 (GFP) and the Tnf promoter (mCherry)
Reagent: siRNA pool against mouse genes, 100 nM
Timing: 16 h of LPS stimulation, after 2 days of siRNA transfection
Conditions: bacterial lipopolysaccharide (Salmonella minnesota R595), 10 ng/ml
Read-out: 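Imaged Tnf reporter mCherry in nuclei, minus background, normalised per plate to the median and expressed as robust z-scores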
Reading the numbers: Tnf reporter robust z-score: higher = stronger Tnf promoter reporter signal after LPS; Tnf reporter intensity: higher = stronger Tnf promoter reporter signal
Hit rule: 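Called active when robust z-score is at most -1.3, matching the median of the Tlr4 knock-down control, or over 3; control wells and wells with under 50 cells never active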
Meaning of the calls: active = Tnf reporter clearly lowered or raised; inactive = no clear change in Tnf reporter

no.	gene knocked down	Tnf reporter robust z-score	fewer than 50 cells in well	Tnf reporter intensity, replicate 1	Tnf reporter intensity, replicate 2	Outcome
1	Id2	-0.81	enough cells in well	176	135	inactive
2	Clcn7	-0.78	enough cells in well	205	131	inactive
3	Dagla	-0.68	enough cells in well	168	96.5	inactive
4	Zscan29	-0.37	enough cells in well	162	131	inactive
5	Pcp4	0.64	enough cells in well	193	148	inactive
6	Fcer1g	-0.46	enough cells in well	170	222	inactive
7	Slc30a5		fewer than 50 cells per well; well left out of calls	20.9	92.4	inactive
8	Igsf5	0.19	enough cells in well	209	136	inactive
9	Efcab5	-0.07	enough cells in well	192	68.9	inactive
10	Plscr3	-0.04	enough cells in well	211	217	inactive
11	Atf4	-0.86	enough cells in well	103	115	inactive
12	Exosc5	-0.01	enough cells in well	235	103	inactive
13	Glt1d1		fewer than 50 cells per well; well left out of calls	122	84.4	inactive
14	Prss30		fewer than 50 cells per well; well left out of calls	157	172	inactive
15	Nyap1	1.97	enough cells in well	339	272	inactive
16	Brwd1	-0.24	enough cells in well	261	192	inactive
17	Thap4	-0.03	enough cells in well	99.7	107	inactive
18	Ice2	-0.03	enough cells in well	274	192	inactive
19	Trib2	2.14	enough cells in well	298	143	inactive
20	Or8d6	1.15	enough cells in well	199	190	inactive
21	Ift27	-0.08	enough cells in well	307	196	inactive
22	Vgll4	-0.53	enough cells in well	91.5	78.1	inactive
23	Casc3	-0.68	enough cells in well	102	170	inactive
24	Ripk1	-0.99	enough cells in well	137	101	inactive
25	Ghrhr	0.64	enough cells in well	259	364	inactive
26	Ier5l	1.19	enough cells in well	336	103	inactive
27	Slc32a1	1.33	enough cells in well	168	133	inactive
28	Astn1	1.35	enough cells in well	230	257	inactive
29	BC005537	-0.21	enough cells in well	191	194	inactive
30	Lalba	0.05	enough cells in well	203	48.2	inactive
31	Tep1	0.98	enough cells in well	298	186	inactive
32	Id1		fewer than 50 cells per well; well left out of calls	105	64.6	inactive
33	Or52e19b		fewer than 50 cells per well; well left out of calls	53.2	183	inactive

Reprinted from the listing (3 entries):
no.	gene knocked down	Tnf reporter robust z-score	fewer than 50 cells in well	Tnf reporter intensity, replicate 1	Tnf reporter intensity, replicate 2	Outcome
9	Efcab5	-0.07	enough cells in well	192	68.9	inactive
10	Plscr3	-0.04	enough cells in well	211	217	inactive
11	Atf4	-0.86	enough cells in well	103	115	inactive

More reagents follow:
no.	gene knocked down	Tnf reporter robust z-score	fewer than 50 cells in well	Tnf reporter intensity, replicate 1	Tnf reporter intensity, replicate 2	Outcome
34	Jade2	-0.06	enough cells in well	137	137	inactive
35	Or7g31	1.14	enough cells in well	146	151	inactive
36	Cuedc2	-0.58	enough cells in well	155	135	inactive
37	Rab27a	0.39	enough cells in well	332	244	inactive
38	Lctl	0.42	enough cells in well	199	164	inactive
39	Uggt1	-1.16	enough cells in well	91.7	119	inactive
40	Slc61a1	0.57	enough cells in well	237	164	inactive
41	Tmem17	-0.5	enough cells in well	98.4	66.9	inactive
42	Adprm		fewer than 50 cells per well; well left out of calls	36.4	54.8	inactive
43	Pcbp4	-0.08	enough cells in well	301	126	inactive
44	Cyp4f16	-0.75	enough cells in well	146	124	inactive
45	Postn	-0.17	enough cells in well	249	166	inactive
46	Zfp998		fewer than 50 cells per well; well left out of calls	152	48.8	inactive
47	Kank4	0.08	enough cells in well	91.5	168	inactive
48	Crat	1.01	enough cells in well	301	286	inactive
49	Fasl	-1.16	enough cells in well	127	91	inactive
50	Rab18	0.11	enough cells in well	297	228	inactive
51	Prpf40b	2.09	enough cells in well	261	199	inactive
52	Etos1	-0.39	enough cells in well	193	133	inactive
53	Ttpal	1.16	enough cells in well	240	209	inactive
54	Trem1	0.17	enough cells in well	229	260	inactive
55	Ercc4	0.09	enough cells in well	212	264	inactive
56	Lyzl1	-0.5	enough cells in well	144	134	inactive
57	Dennd2b	0.06	enough cells in well	251	248	inactive
58	Slc15a3	3.22	enough cells in well	220	201	active
